Experimental data reported in the supplement of paper PMC8728848.
Some of the results follow.

Legend:
Assay in all cases: glycan array binding signal (z-score within array); higher = stronger binding
Conditions in all cases: glycan notation: IUPAC condensed, linker removed
[1] = target: Gal(b1-3)[Neu5Ac(b2-6)]GalNAc
Summary of the method: (§1)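 The binding signal is a Z-score computed within each array. Data were drawn from 3228 arrays in the Consortium for Functional Glycomics database, restricted to those with a known protein sequence. Scores were averaged over arrays of the same protein sequence at different concentrations or buffers, and over linkers, and negative values can be taken as non-binding.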

Gal(b1-4)Gal = target: Gal(b1-4)Gal
Summary of the method: as §1

[2] = target: Gal(b1-4)GalNAc(a1-3)[Fuc(a1-2)]Gal(b1-4)GlcNAc
Summary of the method: as §1

[3] = target: Gal(b1-4)GalNAc(b1-3)[Fuc(a1-2)]Gal(b1-4)GlcNAc
Summary of the method: as §1

Gal(b1-4)Glc = target: Gal(b1-4)Glc
Summary of the method: as §1

Gal(b1-4)Glc6S = target: Gal(b1-4)Glc6S
Summary of the method: as §1

Gal(b1-4)GlcNAc = target: Gal(b1-4)GlcNAc
Summary of the method: as §1

[4] = target: Gal(b1-4)GlcNAc(a1-6)Gal(b1-4)GlcNAc
Summary of the method: as §1

Gal(b1-4)GlcNAc(b1-2)Man = target: Gal(b1-4)GlcNAc(b1-2)Man
Summary of the method: as §1

[5] = target: Gal(b1-4)GlcNAc(b1-2)Man(a1-3)Man(b1-4)GlcNAc(b1-4)GlcNAc
Summary of the method: as §1

[6] = target: Gal(b1-4)GlcNAc(b1-2)Man(a1-3)[Gal(b1-4)GlcNAc(b1-2)Man(a1-6)]Man(b1-4)GlcNAc(b1-4)GlcNAc
Summary of the method: as §1

[7] = target: Gal(b1-4)GlcNAc(b1-2)Man(a1-3)[Gal(b1-4)GlcNAc(b1-2)Man(a1-6)]Man(b1-4)GlcNAc(b1-4)[Fuc(a1-6)]GlcNAc
Summary of the method: as §1

[8] = target: Gal(b1-4)GlcNAc(b1-2)Man(a1-3)[Gal(b1-4)GlcNAc(b1-2)Man(a1-6)][Gal(b1-4)GlcNAc(b1-4)]Man(b1-4)GlcNAc(b1-4)[Fuc(a1-6)]GlcNAc
Summary of the method: as §1

[9] = target: Gal(b1-4)GlcNAc(b1-2)Man(a1-3)[Gal(b1-4)GlcNAc(b1-2)Man(a1-6)][GlcNAc(b1-4)]Man(b1-4)GlcNAc(b1-4)[Fuc(a1-6)]GlcNAc
Summary of the method: as §1

[10] = target: Gal(b1-4)GlcNAc(b1-2)Man(a1-3)[Gal(b1-4)GlcNAc(b1-2)][GlcNAc(b1-4)]Man(b1-4)GlcNAc(b1-4)GlcNAc
Summary of the method: as §1

[11] = target: Gal(b1-4)GlcNAc(b1-2)Man(a1-3)[GlcNAc(b1-2)Man(a1-6)]Man(b1-4)GlcNAc(b1-4)GlcNAc
Summary of the method: as §1

[12] = target: Gal(b1-4)GlcNAc(b1-2)Man(a1-3)[GlcNAc(b1-4)][Gal(b1-4)GlcNAc(b1-2)Man(a1-6)]Man(b1-4)GlcNAc(b1-4)GlcNAc
Summary of the method: as §1

[13] = target: Gal(b1-4)GlcNAc(b1-2)Man(a1-3)[Man(a1-6)]Man(b1-4)GlcNAc(b1-4)GlcNAc
Summary of the method: as §1

[14] = target: Gal(b1-4)GlcNAc(b1-2)Man(a1-6)Man(b1-4)GlcNAc(b1-4)GlcNAc
Summary of the method: as §1

[15] = target: Gal(b1-4)GlcNAc(b1-2)Man(a1-6)[GlcNAc(b1-2)Man(a1-3)]Man(b1-4)GlcNAc(b1-4)GlcNAc
Summary of the method: as §1

[16] = target: Gal(b1-4)GlcNAc(b1-2)Man(a1-6)[Man(a1-3)]Man(b1-4)GlcNAc(b1-4)GlcNAc
Summary of the method: as §1

[17] = target: Gal(b1-4)GlcNAc(b1-2)[Gal(b1-4)GlcNAc(b1-4)]Man(a1-3)[Gal(b1-4)GlcNAc(b1-2)Man(a1-6)]Man(b1-4)GlcNAc(b1-4)GlcNAc
Summary of the method: as §1

[18] = target: Gal(b1-4)GlcNAc(b1-2)[Gal(b1-4)GlcNAc(b1-4)]Man(a1-3)[Gal(b1-4)GlcNAc(b1-2)[Gal(b1-4)GlcNAc(b1-6)]Man(a1-6)]Man(b1-4)GlcNAc(b1-4)GlcNAc
Summary of the method: as §1

[19] = target: Gal(b1-4)GlcNAc(b1-2)[Gal(b1-4)GlcNAc(b1-4)]Man(a1-3)[GlcNAc(b1-4)][Gal(b1-4)GlcNAc(b1-2)Man(a1-6)]Man(b1-4)GlcNAc(b1-4)GlcNAc
Summary of the method: as §1

[20] = target: Gal(b1-4)GlcNAc(b1-2)[Gal(b1-4)GlcNAc(b1-4)]Man(a1-3)[GlcNAc(b1-4)][Gal(b1-4)GlcNAc(b1-2)[Gal(b1-4)GlcNAc(b1-6)]Man(a1-6)]Man(b1-4)GlcNAc(b1-4)GlcNAc
Summary of the method: as §1

[21] = target: Gal(b1-4)GlcNAc(b1-2)[Gal(b1-4)GlcNAc(b1-6)]Man(a1-6)[Gal(b1-4)GlcNAc(b1-2)Man(a1-3)]Man(b1-4)GlcNAc(b1-4)GlcNAc
Summary of the method: as §1

[22] = target: Gal(b1-4)GlcNAc(b1-2)[Gal(b1-4)GlcNAc(b1-6)]Man(a1-6)[Gal(b1-4)GlcNAc(b1-2)Man(a1-3)]Man(b1-4)GlcNAc(b1-4)[Fuc(a1-6)]GlcNAc
Summary of the method: as §1

[23] = target: Gal(b1-4)GlcNAc(b1-2)[Gal(b1-4)GlcNAc(b1-6)]Man(a1-6)[GlcNAc(b1-4)][Gal(b1-4)GlcNAc(b1-2)Man(a1-3)]Man(b1-4)GlcNAc(b1-4)GlcNAc
Summary of the method: as §1

[24] = target: Gal(b1-4)GlcNAc(b1-2)[Gal(b1-4)GlcNAc(b1-6)]Man(a1-6)[GlcNAc(b1-4)][Gal(b1-4)GlcNAc(b1-2)[Gal(b1-4)GlcNAc(b1-4)]Man(a1-3)]Man(b1-4)GlcNAc(b1-4)[Fuc(a1-6)]GlcNAc
Summary of the method: as §1

[25] = target: Gal(b1-4)GlcNAc(b1-3)Gal(b1-3)GalNAc
Summary of the method: as §1

[26] = target: Gal(b1-4)GlcNAc(b1-3)Gal(b1-3)GlcNAc
Summary of the method: as §1

[27] = target: Gal(b1-4)GlcNAc(b1-3)Gal(b1-4)Glc
Summary of the method: as §1

[28] = target: Gal(b1-4)GlcNAc(b1-3)Gal(b1-4)GlcNAc
Summary of the method: as §1

[29] = target: Gal(b1-4)GlcNAc(b1-3)Gal(b1-4)GlcNAc(b1-2)Man(a1-3)[Gal(b1-4)GlcNAc(b1-3)Gal(b1-4)GlcNAc(b1-2)Man(a1-6)]Man(b1-4)GlcNAc(b1-4)GlcNAc
Summary of the method: as §1

[30] = target: Gal(b1-4)GlcNAc(b1-3)Gal(b1-4)GlcNAc(b1-2)Man(a1-3)[Gal(b1-4)GlcNAc(b1-3)Gal(b1-4)GlcNAc(b1-2)Man(a1-6)]Man(b1-4)GlcNAc(b1-4)[Fuc(a1-6)]GlcNAc
Summary of the method: as §1

[31] = target: Gal(b1-4)GlcNAc(b1-3)Gal(b1-4)GlcNAc(b1-2)[Gal(b1-4)GlcNAc(b1-3)Gal(b1-4)GlcNAc(b1-6)]Man(a1-6)[Gal(b1-4)GlcNAc(b1-3)Gal(b1-4)GlcNAc(b1-2)Man(a1-3)]Man(b1-4)GlcNAc(b1-4)GlcNAc
Summary of the method: as §1

[32] = target: Gal(b1-4)GlcNAc(b1-3)Gal(b1-4)GlcNAc(b1-2)[Gal(b1-4)GlcNAc(b1-3)Gal(b1-4)GlcNAc(b1-6)]Man(a1-6)[Gal(b1-4)GlcNAc(b1-3)Gal(b1-4)GlcNAc(b1-2)Man(a1-3)]Man(b1-4)GlcNAc(b1-4)[Fuc(a1-6)]GlcNAc
Summary of the method: as §1

[33] = target: Gal(b1-4)GlcNAc(b1-3)Gal(b1-4)GlcNAc(b1-3)Gal(b1-4)GlcNAc
Summary of the method: as §1

B1: Flo1 (Saccharomyces cerevisiae), P32768 (protein)
chain: SGATEACLPAGQRKSGMNINFYQYSLKDSSTYSNAAYMAYGYASKTKLGSVGGQTDISIDYNIPCVSSSGTFPCPQEDSYGNWGCKGMGACSNSQGIAYWSTDLFGFYTTPTNVTLEMTGYFLPPQTGSYTFKFATVDDSAILSVGGATAFNCCAQQQPPITSTNFTIDGIKPWGGSLPPNIEGTVYMYAGYYYPMKVVYSNAVSWGTLPISVTLPDGTTVSDDFEGYVYSFDDDLSQSNCTVPDPSNY
glycan array binding signal (z-score) [1]: -0.579
glycan array binding signal (z-score) (Gal(b1-4)Gal): -0.193
glycan array binding signal (z-score) [2]: -0.352
glycan array binding signal (z-score) [3]: 0.699
glycan array binding signal (z-score) (Gal(b1-4)Glc): -0.357
glycan array binding signal (z-score) (Gal(b1-4)Glc6S): 0.024
glycan array binding signal (z-score) (Gal(b1-4)GlcNAc): 0.021
glycan array binding signal (z-score) [4]: -0.078
glycan array binding signal (z-score) (Gal(b1-4)GlcNAc(b1-2)Man): -0.394
glycan array binding signal (z-score) [5]: 0.007
glycan array binding signal (z-score) [6]: -0.067
glycan array binding signal (z-score) [7]: 0.883
glycan array binding signal (z-score) [8]: -0.321
glycan array binding signal (z-score) [9]: -0.249
glycan array binding signal (z-score) [10]: -0.753
glycan array binding signal (z-score) [11]: -0.584
glycan array binding signal (z-score) [12]: -0.208
glycan array binding signal (z-score) [13]: -0.397
glycan array binding signal (z-score) [14]: -0.4
glycan array binding signal (z-score) [15]: -0.071
glycan array binding signal (z-score) [16]: 0.098
glycan array binding signal (z-score) [17]: -0.087
glycan array binding signal (z-score) [18]: 0.251
glycan array binding signal (z-score) [19]: 0.797
glycan array binding signal (z-score) [20]: -0.539
glycan array binding signal (z-score) [21]: 0.321
glycan array binding signal (z-score) [22]: 0.499
glycan array binding signal (z-score) [23]: 0.18
glycan array binding signal (z-score) [24]: -0.584
glycan array binding signal (z-score) [25]: -0.714
glycan array binding signal (z-score) [26]: -0.51
glycan array binding signal (z-score) [27]: -0.214
glycan array binding signal (z-score) [28]: -0.488
glycan array binding signal (z-score) [29]: 0.312
glycan array binding signal (z-score) [30]: 8.23
glycan array binding signal (z-score) [31]: -0.252
glycan array binding signal (z-score) [32]: 0.387
glycan array binding signal (z-score) [33]: -0.021
